PubChem BioAssay AID743454, Peter MacCallum Cancer Centre – 2014
Here is an unselected part of about 18,000 reagents tested. 450 of them (2.5%) count as active. 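Single biological run; no consistent viability z cut-off exists, so the class columns, not z-scores, define the calls.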 No sequences are given here.

- Screen: 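Knock-downs lowering viability or raising caspase 3/7 activity in vorinostat-treated resistant cells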 (primary screen)
- System: human HCT116-VR colon cancer cells, selected for vorinostat resistance
- Reagents: siRNA pool against human genes, 40 nM siRNA pool
- Duration: vorinostat for 24 h, read-out about 72 h after transfection
- Conditions: vorinostat at 2.5 µM final
- Measurement: 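Cell viability by CellTiter-Fluor and caspase 3/7 activity by luminescence, each scaled to mock wells per plate, duplicates averaged, then robust z-scored over all plates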
- Scale: viability robust z-score: higher = more viable cells than screen typical; caspase robust z-score: higher = more caspase 3/7 activity than screen typical
- Active means: 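Hits are knock-downs in viability class RV1/RV2 or caspase class CA1/CA2, excluding ones that killed cells in the no-drug cell-count arm; hits then retested with single siRNAs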

With ANTXR1 (GeneID 84168), how do the results read?
viability hit class: no change; caspase hit class: no change; viability robust z-score: -0.07; caspase robust z-score: -0.5; outcome: inactive

For DHCR7 (GeneID 1717), what does the deposit list?
viability hit class: no change; caspase hit class: no change; viability robust z-score: 0.85; caspase robust z-score: -0.84; outcome: inactive

What is on record for RBMY1B (GeneID 378948)?
viability hit class: no change; caspase hit class: no change; viability robust z-score: -0.04; caspase robust z-score: -0.94; outcome: inactive

For FNDC3A (GeneID 22862), how do the results read?
viability hit class: no change; caspase hit class: no change; viability robust z-score: 1.34; caspase robust z-score: 0.53; outcome: inactive

Which result is listed for GPX7 (GeneID 2882)?
viability hit class: no change; caspase hit class: no change; viability robust z-score: -1.56; caspase robust z-score: -1.11; outcome: inactive

For RAB40C (GeneID 57799), how do the results read?
viability hit class: no change; caspase hit class: no change; viability robust z-score: 0.23; caspase robust z-score: -0.78; outcome: inactive

Already shown: 2 of the entries above.
FNDC3A (GeneID 22862) → viability hit class: no change; caspase hit class: no change; viability robust z-score: 1.34; caspase robust z-score: 0.53; outcome: inactive
GPX7 (GeneID 2882) → viability hit class: no change; caspase hit class: no change; viability robust z-score: -1.56; caspase robust z-score: -1.11; outcome: inactive

Continued:
What did the screen give for FAM149A (GeneID 25854)?
viability hit class: no change; caspase hit class: no change; viability robust z-score: 0.88; caspase robust z-score: -0.94; outcome: inactive

For TBC1D4 (GeneID 9882), how do the results read?
viability hit class: no change; caspase hit class: no change; viability robust z-score: -0.05; caspase robust z-score: 2.97; outcome: inactive

How did the screen score LRIT1 (GeneID 26103)?
viability hit class: no change; caspase hit class: no change; viability robust z-score: 1.02; caspase robust z-score: -0.14; outcome: inactive

For OR5W2 (GeneID 390148), what was measured?
viability hit class: no change; caspase hit class: no change; viability robust z-score: 0.32; caspase robust z-score: 1.92; outcome: inactive

Which result is listed for UGT1A6 (GeneID 54578)?
viability hit class: no change; caspase hit class: no change; viability robust z-score: 0.8; caspase robust z-score: -0.97; outcome: inactive

With SMIM8 (GeneID 57150), what was measured?
viability hit class: no change; caspase hit class: no change; viability robust z-score: 0; caspase robust z-score: 0.24; outcome: inactive
